Results as given in patent US8900444B2, “Switchable hydrophilicity solvents and methods of use thereof” (Queen's University at Kingston, priority 2009, dated 2014).

Test: Soybean oil extraction from soy bean flakes (Example 2B)

CN(C)C1CCCCC1 [N,N-dimethylcyclohexylamine]
time to reach similar amount of oil extracted as at 60 °C (25 °C): at least 30 min | time to reach maximum amount of oil extracted (60 °C): ≤ 15 min | SHS content of decanted soy oil (larger scale, 10 wt % piperazine solution, CO2 about 45 min, 24 h settling, 1H NMR): 11%
